Measured values reported in the supplement of paper PMC10849652.
This is one part of the list.

Sequences of proteins named here, by UniProt entry; tags and fusion partners are left off. A change or cut given only in a name is not applied to a line headed by its entry.
UniProt Q9H490: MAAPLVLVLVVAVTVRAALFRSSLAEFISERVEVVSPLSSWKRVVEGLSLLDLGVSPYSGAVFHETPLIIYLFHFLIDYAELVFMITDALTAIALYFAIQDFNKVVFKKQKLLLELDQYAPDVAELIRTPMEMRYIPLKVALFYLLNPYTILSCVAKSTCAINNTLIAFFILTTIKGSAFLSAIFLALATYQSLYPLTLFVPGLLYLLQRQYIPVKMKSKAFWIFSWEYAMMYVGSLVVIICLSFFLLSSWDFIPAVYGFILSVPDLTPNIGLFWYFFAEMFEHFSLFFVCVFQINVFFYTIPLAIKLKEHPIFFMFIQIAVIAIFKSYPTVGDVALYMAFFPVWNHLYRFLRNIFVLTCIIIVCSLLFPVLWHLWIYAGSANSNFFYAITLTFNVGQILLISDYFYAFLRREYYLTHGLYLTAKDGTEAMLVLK
UniProt Q9Y237, whole entry, looked up: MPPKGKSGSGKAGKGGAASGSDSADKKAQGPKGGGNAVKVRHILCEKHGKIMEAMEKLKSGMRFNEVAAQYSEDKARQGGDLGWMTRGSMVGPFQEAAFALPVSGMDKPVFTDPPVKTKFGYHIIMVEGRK
UniProt Q4KWH8: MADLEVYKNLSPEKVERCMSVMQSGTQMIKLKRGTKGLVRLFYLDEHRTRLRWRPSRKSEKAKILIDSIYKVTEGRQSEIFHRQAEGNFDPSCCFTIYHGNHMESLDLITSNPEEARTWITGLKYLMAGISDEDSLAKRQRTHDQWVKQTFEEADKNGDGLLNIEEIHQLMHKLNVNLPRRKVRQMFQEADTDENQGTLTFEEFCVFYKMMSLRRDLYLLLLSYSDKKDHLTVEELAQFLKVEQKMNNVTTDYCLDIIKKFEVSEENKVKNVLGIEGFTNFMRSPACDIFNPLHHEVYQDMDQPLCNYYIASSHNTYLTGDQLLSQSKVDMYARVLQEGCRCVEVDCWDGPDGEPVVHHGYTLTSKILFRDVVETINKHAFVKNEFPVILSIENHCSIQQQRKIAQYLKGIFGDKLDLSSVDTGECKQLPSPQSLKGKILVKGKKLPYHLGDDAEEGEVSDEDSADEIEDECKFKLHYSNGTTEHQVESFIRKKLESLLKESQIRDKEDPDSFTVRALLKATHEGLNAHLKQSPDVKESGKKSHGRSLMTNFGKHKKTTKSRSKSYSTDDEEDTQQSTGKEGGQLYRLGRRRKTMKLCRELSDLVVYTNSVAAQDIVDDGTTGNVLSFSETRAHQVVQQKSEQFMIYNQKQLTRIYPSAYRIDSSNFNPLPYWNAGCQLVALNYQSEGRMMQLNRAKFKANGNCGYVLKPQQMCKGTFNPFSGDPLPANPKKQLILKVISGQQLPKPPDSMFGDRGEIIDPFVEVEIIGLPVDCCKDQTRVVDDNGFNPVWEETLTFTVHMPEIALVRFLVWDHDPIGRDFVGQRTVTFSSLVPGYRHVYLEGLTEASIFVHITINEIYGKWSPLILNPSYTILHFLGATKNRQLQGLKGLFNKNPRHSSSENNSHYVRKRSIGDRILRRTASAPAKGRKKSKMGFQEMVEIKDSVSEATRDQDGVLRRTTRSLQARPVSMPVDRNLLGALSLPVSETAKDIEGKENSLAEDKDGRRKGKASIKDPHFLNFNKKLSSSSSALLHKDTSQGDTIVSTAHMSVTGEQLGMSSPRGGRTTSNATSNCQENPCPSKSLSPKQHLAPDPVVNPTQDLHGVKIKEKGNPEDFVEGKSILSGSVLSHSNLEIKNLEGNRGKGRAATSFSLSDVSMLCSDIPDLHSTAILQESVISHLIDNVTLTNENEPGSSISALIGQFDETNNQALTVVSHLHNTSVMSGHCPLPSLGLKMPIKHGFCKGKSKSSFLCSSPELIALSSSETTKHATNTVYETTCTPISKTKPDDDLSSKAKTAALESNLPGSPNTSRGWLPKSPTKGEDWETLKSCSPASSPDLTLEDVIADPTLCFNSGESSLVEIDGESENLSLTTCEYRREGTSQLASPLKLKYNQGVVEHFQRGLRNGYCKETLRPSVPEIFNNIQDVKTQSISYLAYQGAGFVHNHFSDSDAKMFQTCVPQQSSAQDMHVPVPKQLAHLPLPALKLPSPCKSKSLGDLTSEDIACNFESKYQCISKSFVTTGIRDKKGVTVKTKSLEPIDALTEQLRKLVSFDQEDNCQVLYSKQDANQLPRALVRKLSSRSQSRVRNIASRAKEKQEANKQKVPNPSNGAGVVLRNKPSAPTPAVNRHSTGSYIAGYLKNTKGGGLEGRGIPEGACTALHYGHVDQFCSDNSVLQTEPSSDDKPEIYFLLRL
UniProt A6NDG6: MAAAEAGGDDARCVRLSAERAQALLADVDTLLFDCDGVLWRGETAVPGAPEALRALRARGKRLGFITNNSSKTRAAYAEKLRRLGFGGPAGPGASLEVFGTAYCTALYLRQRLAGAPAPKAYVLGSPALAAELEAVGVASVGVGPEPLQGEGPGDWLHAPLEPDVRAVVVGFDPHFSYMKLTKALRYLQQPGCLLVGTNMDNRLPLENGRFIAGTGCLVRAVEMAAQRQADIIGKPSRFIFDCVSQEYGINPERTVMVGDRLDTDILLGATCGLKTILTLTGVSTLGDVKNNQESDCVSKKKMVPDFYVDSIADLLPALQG
UniProt O43175: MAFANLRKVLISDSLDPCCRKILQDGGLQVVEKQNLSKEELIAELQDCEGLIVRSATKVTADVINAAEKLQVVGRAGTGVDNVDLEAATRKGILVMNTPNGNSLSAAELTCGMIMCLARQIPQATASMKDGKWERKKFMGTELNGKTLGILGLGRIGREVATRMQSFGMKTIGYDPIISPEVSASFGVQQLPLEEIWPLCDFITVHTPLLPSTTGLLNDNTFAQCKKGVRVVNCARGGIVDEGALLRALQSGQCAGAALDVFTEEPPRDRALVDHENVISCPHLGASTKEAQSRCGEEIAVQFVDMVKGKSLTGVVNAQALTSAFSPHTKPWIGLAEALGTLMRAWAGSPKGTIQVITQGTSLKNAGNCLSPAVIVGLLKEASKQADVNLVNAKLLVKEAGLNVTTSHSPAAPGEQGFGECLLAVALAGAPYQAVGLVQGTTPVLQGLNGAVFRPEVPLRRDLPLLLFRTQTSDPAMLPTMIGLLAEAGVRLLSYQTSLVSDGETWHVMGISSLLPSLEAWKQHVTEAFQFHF
UniProt Q9GZP4: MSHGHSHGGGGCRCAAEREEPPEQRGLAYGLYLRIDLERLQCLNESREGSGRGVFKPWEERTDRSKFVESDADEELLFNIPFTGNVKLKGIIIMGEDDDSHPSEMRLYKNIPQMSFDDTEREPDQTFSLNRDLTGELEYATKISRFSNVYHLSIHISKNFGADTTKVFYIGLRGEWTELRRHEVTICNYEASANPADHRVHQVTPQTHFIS
UniProt Q9NRX4: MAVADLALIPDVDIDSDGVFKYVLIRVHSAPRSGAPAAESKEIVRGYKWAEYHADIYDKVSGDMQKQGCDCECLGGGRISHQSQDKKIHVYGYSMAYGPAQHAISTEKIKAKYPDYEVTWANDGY
UniProt P00558: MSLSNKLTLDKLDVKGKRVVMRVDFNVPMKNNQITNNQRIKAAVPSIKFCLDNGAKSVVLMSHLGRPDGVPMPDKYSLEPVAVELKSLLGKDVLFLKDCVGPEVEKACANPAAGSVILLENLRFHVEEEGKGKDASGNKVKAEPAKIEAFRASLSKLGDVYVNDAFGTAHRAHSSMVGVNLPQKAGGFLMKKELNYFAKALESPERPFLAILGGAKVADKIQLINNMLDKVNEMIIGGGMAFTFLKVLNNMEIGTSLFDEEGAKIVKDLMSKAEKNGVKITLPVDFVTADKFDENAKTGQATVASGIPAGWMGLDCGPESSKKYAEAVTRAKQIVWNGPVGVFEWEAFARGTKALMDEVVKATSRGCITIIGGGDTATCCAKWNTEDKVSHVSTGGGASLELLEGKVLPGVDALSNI
UniProt O00264: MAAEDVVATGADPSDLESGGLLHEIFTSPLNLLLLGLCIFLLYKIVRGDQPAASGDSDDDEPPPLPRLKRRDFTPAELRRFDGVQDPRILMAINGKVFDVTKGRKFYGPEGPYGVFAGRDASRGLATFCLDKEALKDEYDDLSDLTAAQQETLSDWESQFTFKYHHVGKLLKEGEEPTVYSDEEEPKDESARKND
UniProt Q92576, whole entry, looked up: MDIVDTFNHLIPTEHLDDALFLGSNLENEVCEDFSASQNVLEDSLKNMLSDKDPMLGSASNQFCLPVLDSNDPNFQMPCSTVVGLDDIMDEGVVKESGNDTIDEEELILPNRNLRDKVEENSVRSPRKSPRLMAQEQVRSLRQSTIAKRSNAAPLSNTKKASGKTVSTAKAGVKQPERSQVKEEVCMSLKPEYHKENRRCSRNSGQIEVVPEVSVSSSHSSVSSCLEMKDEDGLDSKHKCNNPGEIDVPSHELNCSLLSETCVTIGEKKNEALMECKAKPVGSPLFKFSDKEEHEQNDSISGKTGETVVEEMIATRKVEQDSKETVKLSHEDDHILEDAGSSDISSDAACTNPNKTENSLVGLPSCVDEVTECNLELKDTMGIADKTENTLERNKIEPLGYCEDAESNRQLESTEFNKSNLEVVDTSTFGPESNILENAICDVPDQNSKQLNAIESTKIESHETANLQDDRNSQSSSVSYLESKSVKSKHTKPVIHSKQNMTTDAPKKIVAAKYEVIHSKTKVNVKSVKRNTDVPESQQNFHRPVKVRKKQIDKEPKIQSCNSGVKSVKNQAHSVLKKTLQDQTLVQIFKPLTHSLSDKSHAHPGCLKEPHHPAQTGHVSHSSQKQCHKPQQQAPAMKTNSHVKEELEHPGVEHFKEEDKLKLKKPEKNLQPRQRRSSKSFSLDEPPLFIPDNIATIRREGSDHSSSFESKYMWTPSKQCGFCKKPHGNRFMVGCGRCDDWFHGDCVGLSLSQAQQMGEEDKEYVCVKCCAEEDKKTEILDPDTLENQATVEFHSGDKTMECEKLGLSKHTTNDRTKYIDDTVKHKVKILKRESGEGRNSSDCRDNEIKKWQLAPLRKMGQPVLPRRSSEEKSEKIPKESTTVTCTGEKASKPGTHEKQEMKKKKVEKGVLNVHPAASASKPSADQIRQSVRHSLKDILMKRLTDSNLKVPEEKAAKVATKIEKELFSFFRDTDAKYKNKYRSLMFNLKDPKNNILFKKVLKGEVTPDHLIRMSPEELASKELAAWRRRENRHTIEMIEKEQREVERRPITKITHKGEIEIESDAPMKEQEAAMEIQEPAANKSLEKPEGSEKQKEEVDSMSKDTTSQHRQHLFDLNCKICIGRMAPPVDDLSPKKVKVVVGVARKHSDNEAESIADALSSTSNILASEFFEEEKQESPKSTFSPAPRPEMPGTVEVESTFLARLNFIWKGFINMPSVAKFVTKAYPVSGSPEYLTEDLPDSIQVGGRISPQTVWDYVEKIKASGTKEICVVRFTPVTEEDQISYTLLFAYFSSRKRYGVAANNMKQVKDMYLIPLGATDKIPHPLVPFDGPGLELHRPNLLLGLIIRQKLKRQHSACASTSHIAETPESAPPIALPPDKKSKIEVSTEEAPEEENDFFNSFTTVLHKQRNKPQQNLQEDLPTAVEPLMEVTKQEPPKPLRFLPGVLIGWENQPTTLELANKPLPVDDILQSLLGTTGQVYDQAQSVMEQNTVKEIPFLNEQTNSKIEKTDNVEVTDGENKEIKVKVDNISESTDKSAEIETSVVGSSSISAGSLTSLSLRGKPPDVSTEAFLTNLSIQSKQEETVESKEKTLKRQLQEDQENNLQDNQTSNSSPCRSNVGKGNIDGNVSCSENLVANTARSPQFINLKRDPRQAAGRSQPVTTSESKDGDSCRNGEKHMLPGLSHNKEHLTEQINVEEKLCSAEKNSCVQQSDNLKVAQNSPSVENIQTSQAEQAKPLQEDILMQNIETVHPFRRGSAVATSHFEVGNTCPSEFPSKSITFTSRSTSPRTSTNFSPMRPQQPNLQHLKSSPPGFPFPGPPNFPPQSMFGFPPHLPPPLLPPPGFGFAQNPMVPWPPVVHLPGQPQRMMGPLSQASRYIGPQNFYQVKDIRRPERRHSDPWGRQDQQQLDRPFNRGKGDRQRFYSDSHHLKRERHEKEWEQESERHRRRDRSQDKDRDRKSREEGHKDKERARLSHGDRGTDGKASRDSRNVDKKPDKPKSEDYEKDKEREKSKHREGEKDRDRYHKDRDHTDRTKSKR
UniProt Q9UHV9, whole entry, looked up: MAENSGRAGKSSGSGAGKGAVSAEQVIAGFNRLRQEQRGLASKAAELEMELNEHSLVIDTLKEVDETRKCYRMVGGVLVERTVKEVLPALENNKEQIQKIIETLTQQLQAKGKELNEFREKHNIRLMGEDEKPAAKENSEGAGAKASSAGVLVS

Key:
Test in all cases: log2 fold change, soluble protein after heating vs DMSO (PISA); higher = thermal stabilisation; K562 cells, 10 uM, 30 min; active = over 0.2 and 3.5 SD of the protein, either way, in both replicates (recomputed)
saracatinib = compound: CN1CCN(CCOc2cc(OC3CCOCC3)c3c(Nc4c(Cl)ccc5c4OCO5)ncnc3c2)CC1 [saracatinib]
Summary of the method: (§1)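 Aliquots of K562 cells (2×10^6 cells/mL) treated with 10 μM compound for 30 min were heated for 3 min over 48°C-58°C. After pooling and extraction in PBS with 0.5% NP-40 at 4°C, soluble protein from a 21,000xg, 90 min spin was quantified by TMTpro 16plex LC-MS/MS with channel sums equalised. Thermal stability is expressed against control samples, from duplicates, as a log2 fold change.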

sotrastaurin = compound: CN1CCN(c2nc(C3=C(c4c[nH]c5ccccc45)C(=O)NC3=O)c3ccccc3n2)CC1 [sotrastaurin]
Summary of the method: as §1

alvocidib = compound: CN1CC[C@H](c2c(O)cc(O)c3c(=O)cc(-c4ccccc4Cl)oc23)[C@H](O)C1 [alvocidib]
Summary of the method: as §1

Tubastatin A = compound: CN1CCc2c(c3ccccc3n2Cc2ccc(C(=O)NO)cc2)C1 [Tubastatin A]
Summary of the method: as §1

[1] = compound: CNC(=O)C1=CC=CC=C1NC2=NC(=NC=C2Cl)NC3=C(C=C(C=C3)N4CCOCC4)OC
Summary of the method: as §1

defactinib = compound: CNC(=O)c1ccc(Nc2ncc(C(F)(F)F)c(NCc3nccnc3N(C)S(C)(=O)=O)n2)cc1 [defactinib]
Summary of the method: as §1

rucaparib = compound: CNCc1ccc(-c2[nH]c3cc(F)cc4c3c2CCNC4=O)cc1 [rucaparib]
Summary of the method: as §1

[2] = compound: CNc1nc(-c2ccc3c(N)n[nH]c3c2)cc(N2C[C@@H](C(=O)NC3CCCCC3)CC[C@H]2C)n1
Summary of the method: as §1

encorafenib = compound: COC(=O)N[C@@H](C)CNc1nccc(-c2cn(C(C)C)nc2-c2cc(Cl)cc(NS(C)(=O)=O)c2F)n1 [encorafenib]
Summary of the method: as §1

[3] = compound: COC(=O)[C@H](CCSC)NC(=O)C1=C(C=C(C=C1)NC[C@H](CS)N)C2=CC=CC=C2
Summary of the method: as §1

[4] = compound: COC1=CC=C(C=C1)CN2C=CC3=C2C=C(C=C3)C(=O)NO
Summary of the method: as §1

filanesib = compound: CON(C)C(=O)N1N=C(c2cc(F)ccc2F)S[C@@]1(CCCN)c1ccccc1 [filanesib]
Summary of the method: as §1

zotarolimus = compound: CO[C@H]1C[C@@H]2CC[C@@H](C)[C@@](O)(O2)C(=O)C(=O)N2CCCC[C@H]2C(=O)O[C@H]([C@H](C)C[C@@H]2CC[C@H](n3cnnn3)[C@H](OC)C2)CC(=O)[C@H](C)/C=C(\C)[C@@H](O)[C@@H](OC)C(=O)[C@H](C)C[C@H](C)/C=C/C=C/C=C/1C [zotarolimus]
Summary of the method: as §1

idasanutlin = compound: COc1cc(C(=O)O)ccc1NC(=O)[C@@H]1N[C@@H](CC(C)(C)C)[C@](C#N)(c2ccc(Cl)cc2F)[C@H]1c1cccc(Cl)c1F [idasanutlin]
Summary of the method: as §1

alisertib = compound: COc1cc(Nc2ncc3c(n2)-c2ccc(Cl)cc2C(c2c(F)cccc2OC)=NC3)ccc1C(=O)O [alisertib]
Summary of the method: as §1

[5] = compound: COc1cc2nc(-c3cc(F)ccc3O)nc(N[C@@H]3CNC[C@H]3C(C)(C)O)c2cc1OC
Summary of the method: as §1

gefitinib = compound: COc1cc2ncnc(Nc3ccc(F)c(Cl)c3)c2cc1OCCCN1CCOCC1 [gefitinib]
Summary of the method: as §1

[6] = compound: COc1cccc2cc(-c3nc([C@H]4CC[C@H](C(=O)O)CC4)n4ncnc(N)c34)[nH]c12
Summary of the method: as §1

lapatinib = compound: CS(=O)(=O)CCNCc1ccc(-c2ccc3ncnc(Nc4ccc(OCc5cccc(F)c5)c(Cl)c4)c3c2)o1 [lapatinib]
Summary of the method: as §1

pictilisib = compound: CS(=O)(=O)N1CCN(Cc2cc3nc(-c4cccc5[nH]ncc45)nc(N4CCOCC4)c3s2)CC1 [pictilisib]
Summary of the method: as §1

Measured: log2 fold change

PIGU (UniProt Q9H490)
inactive: saracatinib 0.031 | sotrastaurin -0.062 | alvocidib -0.008 | Tubastatin A 0.004 | [1] 0.019 | defactinib -0.098 | rucaparib -0.048 | [2] -0.014 | encorafenib -0.02 | [3] 0.015 | [4] -0.143 | filanesib -0.087 | zotarolimus 0.066 | idasanutlin -0.138 | alisertib -0.058 | [5] -0.077 | gefitinib 0.033 | [6] -0.037 | lapatinib 0.035 | pictilisib -0.047

PIN4 isoform 2 (UniProt Q9Y237)
inactive: saracatinib -0.009 | sotrastaurin 0.001 | alvocidib -0.031 | Tubastatin A -0.033 | [1] -0.006 | defactinib -0.022 | rucaparib -0.034 | [2] -0.004 | encorafenib -0.02 | [3] 0.004 | [4] 0.028 | filanesib 0.004 | zotarolimus 0.021 | idasanutlin -0.034 | alisertib -0.04 | [5] 0.01 | gefitinib 0 | [6] 0.057 | lapatinib -0.024 | pictilisib 0.01

PHACTR4 isoform 2 (UniProt Q8IZ21)
inactive: saracatinib 0.062 | sotrastaurin 0.094 | alvocidib 0.011 | Tubastatin A -0.047 | [1] -0.015 | defactinib -0.03 | rucaparib 0.022 | [2] 0.003 | encorafenib -0.035 | [3] 0.071 | [4] -0.065 | filanesib 0.006 | zotarolimus -0.055 | idasanutlin 0.034 | alisertib -0.074 | [5] 0.033 | gefitinib 0.017 | [6] 0.051 | lapatinib -0.042 | pictilisib 0.081

PLCH1 (UniProt Q4KWH8)
inactive: saracatinib -0.059 | sotrastaurin 0.15 | alvocidib 0.008 | Tubastatin A -0.008 | [1] -0.095 | defactinib -0.019 | rucaparib -0.05 | [2] 0.005 | encorafenib 0.035 | [3] 0 | [4] -0.113 | filanesib 0.068 | zotarolimus -0.092 | idasanutlin -0.088 | alisertib 0 | [5] 0.13 | gefitinib 0.015 | [6] -0.005 | lapatinib -0.126 | pictilisib 0.044

PGP (UniProt A6NDG6)
inactive: saracatinib 0.023 | sotrastaurin 0.008 | alvocidib -0.05 | Tubastatin A -0.022 | [1] -0.029 | defactinib -0.037 | rucaparib -0.062 | [2] -0.043 | encorafenib -0.005 | [3] 0.001 | [4] -0.031 | filanesib -0.073 | zotarolimus 0.005 | idasanutlin -0.053 | alisertib -0.027 | [5] -0.001 | gefitinib 0.004 | [6] 0.008 | lapatinib 0.01 | pictilisib 0.055

PHGDH (UniProt O43175)
inactive: saracatinib 0.03 | sotrastaurin 0.021 | alvocidib -0.005 | Tubastatin A -0.024 | [1] -0.02 | defactinib -0.011 | rucaparib -0.026 | [2] -0.023 | encorafenib -0.009 | [3] -0.002 | [4] 0.011 | filanesib -0.014 | zotarolimus -0.001 | idasanutlin -0.011 | alisertib -0.049 | [5] -0.016 | gefitinib 0.008 | [6] 0.031 | lapatinib 0.012 | pictilisib 0.016

PITHD1 (UniProt Q9GZP4)
inactive: saracatinib 0.049 | sotrastaurin 0.016 | alvocidib 0.047 | Tubastatin A -0.022 | [1] -0.035 | defactinib -0.003 | rucaparib 0.058 | [2] -0.036 | encorafenib -0.101 | [3] 0.04 | [4] -0.096 | filanesib 0.001 | zotarolimus -0.055 | idasanutlin 0.105 | alisertib 0.071 | [5] 0.016 | gefitinib -0.031 | [6] 0.098 | lapatinib -0.085 | pictilisib 0.004

PHF23 (UniProt Q9BUL5)
inactive: saracatinib 0.04 | sotrastaurin 0.023 | alvocidib 0.013 | Tubastatin A 0.053 | [1] 0 | defactinib -0.054 | rucaparib -0.004 | [2] -0.045 | encorafenib -0.02 | [3] 0.055 | [4] -0.029 | filanesib -0.057 | zotarolimus -0.011 | idasanutlin 0.018 | alisertib 0.007 | [5] 0.023 | gefitinib 0.042 | [6] 0.06 | lapatinib 0.01 | pictilisib 0.063

PHPT1 (UniProt Q9NRX4)
inactive: saracatinib 0.008 | sotrastaurin 0.017 | alvocidib -0.079 | Tubastatin A 0.02 | [1] 0.062 | defactinib -0.002 | rucaparib -0.045 | [2] -0.035 | encorafenib -0.003 | [3] 0.041 | [4] -0.121 | filanesib 0.039 | zotarolimus 0.005 | idasanutlin -0.012 | alisertib -0.001 | [5] 0.002 | gefitinib 0.038 | [6] 0.024 | lapatinib -0.04 | pictilisib 0.11

PFKFB3 isoform 4 (UniProt Q16875)
inactive: saracatinib 0.034 | sotrastaurin -0.026 | alvocidib -0.017 | Tubastatin A 0 | [1] -0.038 | defactinib -0.075 | rucaparib -0.075 | [2] 0.047 | encorafenib 0.027 | [3] -0.024 | [4] -0.009 | filanesib -0.005 | zotarolimus 0.093 | idasanutlin -0.028 | alisertib 0.001 | [5] 0.014 | gefitinib -0.033 | [6] 0.005 | lapatinib -0.039 | pictilisib -0.041

PGK1 (UniProt P00558)
inactive: saracatinib -0.019 | sotrastaurin 0.044 | alvocidib -0.044 | Tubastatin A -0.003 | [1] 0.012 | defactinib -0.005 | rucaparib -0.036 | [2] -0.008 | encorafenib -0.024 | [3] 0.01 | [4] -0.007 | filanesib -0.072 | zotarolimus 0.018 | idasanutlin -0.034 | alisertib -0.009 | [5] 0.079 | gefitinib 0.004 | [6] 0.02 | lapatinib -0.022 | pictilisib 0.065

PICALM (UniProt H0YEY8)
inactive: saracatinib 0.035 | sotrastaurin 0.09 | alvocidib -0.039 | Tubastatin A 0.014 | [1] -0.026 | defactinib -0.017 | rucaparib 0.028 | [2] 0.095 | encorafenib -0.031 | [3] 0.029 | [4] -0.123 | filanesib 0.007 | zotarolimus 0.099 | idasanutlin 0 | alisertib 0.001 | [5] -0.155 | gefitinib -0.019 | [6] 0.12 | lapatinib 0.029 | pictilisib 0.137

PGRMC1 (UniProt O00264)
inactive: saracatinib 0.006 | sotrastaurin 0.028 | alvocidib 0.022 | Tubastatin A 0.001 | [1] 0.008 | defactinib 0.008 | rucaparib 0.028 | [2] -0.024 | encorafenib -0.049 | [3] 0.003 | [4] -0.027 | filanesib 0.001 | zotarolimus -0.052 | idasanutlin 0.05 | alisertib -0.094 | [5] 0.005 | gefitinib 0.033 | [6] 0.057 | lapatinib 0.016 | pictilisib -0.029

Pulled one by one from above (two):
PHPT1 (UniProt Q9NRX4)
inactive: saracatinib 0.008 | sotrastaurin 0.017 | alvocidib -0.079 | Tubastatin A 0.02 | [1] 0.062 | defactinib -0.002 | rucaparib -0.045 | [2] -0.035 | encorafenib -0.003 | [3] 0.041 | [4] -0.121 | filanesib 0.039 | zotarolimus 0.005 | idasanutlin -0.012 | alisertib -0.001 | [5] 0.002 | gefitinib 0.038 | [6] 0.024 | lapatinib -0.04 | pictilisib 0.11

PFKFB3 isoform 4 (UniProt Q16875)
inactive: saracatinib 0.034 | sotrastaurin -0.026 | alvocidib -0.017 | Tubastatin A 0 | [1] -0.038 | defactinib -0.075 | rucaparib -0.075 | [2] 0.047 | encorafenib 0.027 | [3] -0.024 | [4] -0.009 | filanesib -0.005 | zotarolimus 0.093 | idasanutlin -0.028 | alisertib 0.001 | [5] 0.014 | gefitinib -0.033 | [6] 0.005 | lapatinib -0.039 | pictilisib -0.041

(further entries)

PHF3 (UniProt Q92576)
inactive: saracatinib -0.123 | sotrastaurin -0.187 | alvocidib 0.312 | Tubastatin A 0.003 | [1] -0.129 | defactinib 0.281 | rucaparib 0.132 | [2] 0.065 | encorafenib 0.053 | [3] 0.038 | [4] -0.068 | filanesib 0.263 | zotarolimus -0.069 | idasanutlin 0.139 | alisertib -0.095 | [5] 0.163 | gefitinib -0.024 | [6] -0.001 | lapatinib 0.054 | pictilisib -0.071

PFDN2 (UniProt Q9UHV9)
inactive: saracatinib 0.005 | sotrastaurin 0.037 | alvocidib -0.016 | Tubastatin A -0.012 | [1] -0.011 | defactinib -0.021 | rucaparib -0.01 | [2] -0.041 | encorafenib -0.005 | [3] 0.003 | [4] -0.051 | filanesib -0.023 | zotarolimus -0.002 | idasanutlin -0.012 | alisertib -0.019 | [5] -0.016 | gefitinib -0.003 | [6] 0.057 | lapatinib -0.017 | pictilisib 0.039
